Data on two molecules can be found in paper PMC11022558.

This experiment concerns the target Histone acetyltransferase Sas3 (something about silencing 3), FLAG-tagged (Aspergillus fumigatus). As to the kind of experiment: affinity purification with mass spectrometry; Sas3-FLAG captured on anti-FLAG M2 agarose beads from 5 mg total protein of mycelium of the Sas3-FLAG strain; lysis buffer 10 mM Tris-HCl pH 7.5, 150 mM NaCl, 0.5 mM EDTA, 1 mM DTT, 0.01% Triton X-100, 1 mM PMSF, protease inhibitors; LC-MS/MS.

No constants are given. Whether binding was seen depends on the method and setting. In cells and extracts the contact can be indirect. These calls come from enrichment with a bait or labelling near it, and not all partners need be listed.

B1: NsdD, sexual development transcription factor (protein, UniProt Q4WYQ4 1-493)
chain: MGSLEATHRQRDHLPTISFFTKDGSGYTSRNSTVSSPTPLVSPTTMYPSQPSPYSYQPSAASAPPQPGYISPPESRRALEEEKEKQLQPQRQSLPSIHEALRNDSPLPYPAPPTSGPLPQAHPHPPHALVGRSAGDGPAGPPNPFSNGAPAGPYMREPAYSQLQTEASRSSLASITTQESRNPSLQSLNSSKSPTHSAKTGLTSIAGSQTGSGYEYSAPTSAGSIASPNGYTAYSQPFTFQSQPPPNAPTYPLAHHDTRPYAATPWKPGAPEPPRVEELKNGLAGRPAVPVQPQGDSAKRHLDIYEVETSLNEIVEVSTRTLDFSRHYATRAHQTQRSGPMLGTLPPLHEIEDMINLQRRNQDALMRLRTAVLNQEHALAEQMAQRKAFSAGGVHDSDHMAMYQEEFKGSGGFAGPDTKKRRGKAAPPGRCHSCNRAETPEWRRGPDGARTLCNACGLHYAKLTRKMGASKAASLGSNLKPKAALDPTPPGTR
As to B1, the binding entry is reported as “binds”.

B2: Protein kinase C PkcA (protein, UniProt Q4WVG0 1-1106)
chain: MDGDDLIASVYRKIEREKALITAASNMRQSTDNPLVQQRVDANIRDGRKNIAYLEEKMRELQLRQMKQEGASPTDKRLPPNPDGSAPVPPPKDYAPGYSGHEREYGDASGAYPHGGAGTMPSGAPFADPRPFAPVPKARPNYTKLDLIKYDTPYLGPKIQLMLSQLEFKLSVEKQYKAGIEKMVRLYQDEGDRKSRQDAEGRRIESNQKIQLLKQALKRYEDLHVDIESAEAPDDESLSTPNLRKPLTGLLTLRIHAVEDVDHAASSRFSRGPETFVVVKVEDAIKARTKATRTDKWQDEPFNIEIDKANEIELTVYDKSGDRPTPIGMLWVRISDIAEEMRRKKIESEFNASGWVSADKMEHGAAHGRQDAGGAPGSSNRPPSGGHSGGPGQGYAGGAPGGASAGPVLIDSWFALEPVGRIHLTLSFAKQLKDRRPFDIGLNRQGAVRQKKEEVHEKQGHKFVTQQFYNIMRCALCGDFLKYAAGMQCADCKYTCHRKCYPKVVTKCISKANYETDPDEEKINHRIPHRFEGFSNISANWCCHCGYLLPFGRKSAKRCTECGLTCHAQCTHLVPDFCGMSMEAANQILETLIRAKNHNKSASVSSGLSGRTLRPGGPPQAPQDNVALAYPQKPVEGAYGAPQRQPSAEAISAATNTYIPPQSPTAAQRQHIPPRTSSSQSPAAAAAAAAAAATGLRTPQQASDPNRPVQPPPSSHAHYDPAAYASYQQAIPPQAMQKMGAPYGMPQQQQQQAVAPMQQQVAVKEEIPPQQPKVRIGLDHFNFLAVLGKGNFGKVMLAETKSTKKLYAIKVLKKEFIIENDEVESTKSEKRVFLIANKERHPFLLNLHACFQTETRVYFVMEYISGGDLMLHIQRGQFGLKRAQFYAAEVLLALKYFHENGVIYRDLKLDNILLTLDGHIKIADYGLCKENMWYGSTTSTFCGTPEFMAPEILLDKKYGRAVDWWAFGVLIYQMLLQQSPFRGEDEDEIYDAILADEPLYPIHMPRDSVSILQKLLTREPELRLGSGPTDAQEVMSHAFFRNINWDDIYHKRVPPPFLPTISSPTDTSNFDQEFTSVTPVLTPVQSVLSQAMQEEFRGFSYTADFA
As for B2, the binding entry is “binds”.
